Data from article PMC7054317, “Mammalian ALKBH1 serves as an N^6-mA demethylase of unpairing DNA” (Cell Research, 2020).
For at least one entry, the source does not settle the construct or the ends of the probe. Tags and fusion partners may be left off the protein sequences shown.

Target: T1, ALKBH1 20-355 crosslinking mutant S235C,C129S,C300S,C304S,C322S (mouse) (UniProt P0CB42)
T1 sequence (looked up): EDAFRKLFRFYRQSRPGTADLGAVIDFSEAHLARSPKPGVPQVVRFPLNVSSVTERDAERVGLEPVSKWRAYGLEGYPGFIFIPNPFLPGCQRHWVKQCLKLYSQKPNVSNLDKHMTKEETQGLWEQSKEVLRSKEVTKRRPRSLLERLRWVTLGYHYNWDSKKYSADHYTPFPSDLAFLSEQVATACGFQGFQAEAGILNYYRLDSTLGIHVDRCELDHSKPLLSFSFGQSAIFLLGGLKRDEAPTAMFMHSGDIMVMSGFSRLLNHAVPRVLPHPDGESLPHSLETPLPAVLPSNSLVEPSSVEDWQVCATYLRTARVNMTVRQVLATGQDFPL
Test: crystal structure (2.4 A)
Conditions: disulfide cross-linked via S235C, crystallized with MnCl2 and NOG/succinic acid; disulfide-modified cytosine (C*) in the bulge, position 10 of strand 1 (mark follows it); recombinant protein; residues 20-355; protein details: His-tag removed by PreScission

GCTGAGTGCCCGCGTGCTGGATCC / GGATCCAGCACGCCACTCAGC [21_bulge3]
binding result: binds
